The subject of one data set is human dermis. The data set is described as follows: Localized ring staining of human dermis with concentric-circle device. The conditions noted are these: 50 mg/mL in 0.2M disodium phosphate, pH 9.0, 2 minutes. An excerpt:
The device for applying the sulfonic acid dye or stain to the corneal surface is composed of a series of concentric circles. The center of the concentric circles is solid and is seated on the corneal apex, preventing exposure of the central cornea to the sulfonic acid dye or stain. An intermediate concentric circle is open to the surface of the cornea allowing exposure of this surface to the sulfonic acid dye or stain. The outer circle is also solid and seated firmly on the corneal surface preventing exposure of the corneal surface to the sulfonic acid dye or stain. The width of the intermediate concentric circle can be adjusted to allow exposure of the corneal surface to predetermined widths of sulfonic acid dye or stain. Thus, a ring of predetermined width can be formed on the corneal surface for specific therapeutic applications. In one design, a port is fabricated fitting the end of a 1.0–2.5 cc syringe. Dye or stain solution is injected into the open ring through this delivery port to treat the exposed tissue surface. The dye or strain is also removed using this port and rinse solutions applied to remove unbound dye or stain. The extent of tissue staining is dependent on the concentration of the dye or stain, exposure time, and the pH of the exposed tissue. Other configurations for delivery devices can be fabricated to stain or dye predetermined regions of the cornea surface for Cosmesis. For example, a dry sponge, pre-dosed with an appropriate amount of black stain or dye is fabricated to specific dimensions such that when the dry, pre-dosed sponge is wet, the dye is delivered to the exposed tissue surface. The dry, pre-dosed sponge is fabricated in the form of a thin ring. The ring is then placed in a delivery device. Fluid is then applied to the ring causing it to wet and instantly deliver the pre-dosed dye or stain to the exposed tissue surface to form a black ring in the same dimensions as the delivery ring. The delivery ring may be fabricated in different dimensions, thickness and diameter to apply the desired stain dimensions. […]

The next data set deals with cat cornea. In words: Staining of corneal surface of a preserved cat eye. The method, then:
A preserved cat eye, with intact cornea, vitreous and scleral tissue, was removed from the preservation solution and placed in a bath of 0.2M disodium phosphate, pH 9.2, for 2 minutes. The eye was then removed from the bath and placed in a holding device allowing the cornea to be exposed for treatment. Reactive Black 5 dissolved in 0.2M disodium phosphate, pH 9.2, was applied to the entire exposed surface of the cat cornea. After 1 minute, the cornea was thoroughly washed with 0.1M phosphate buffer, pH 7.2, to remove unbound dye. […] A thin ring was etched into the corneal surface using a scalpel blade. Reactive Black 5 solution was again applied to the corneal surface. After 1 minute, the cornea was thoroughly washed with 0.1M phosphate buffer, pH 7.2 until the wash solution appeared clear and colorless. […] Similar techniques will be useful for cosmesis to cover corneal scars or to create a pupil in aniridia. In addition, a corneal ring can be formed on the corneal surface to improve depth of focus for certain refractive errors and to restrict light scatter in certain corneal opacities. Furthermore, a similar corneal ring has potential applications in restricting orientation of light rays striking the macular in age related Macular Degeneration.

As to `Nc1c(N=Nc2ccc(S(=O)(=O)CCOS(=O)(=O)[O-])cc2)c(S(=O)(=O)[O-])cc2cc(S(=O)(=O)[O-])c(N=Nc3ccc(S(=O)(=O)CCOS(=O)(=O)[O-])cc3)c(O)c12.[Na+].[Na+].[Na+].[Na+]` [Reactive Black 5], in the data set on human dermis, the “bleeding of dye into unexposed tissue” value is on record as “Minimal bleeding” and the “width of stained ring” value is given as “approximately 1.5 mm”. Also, the “stain formed on dermal tissue surface” value in the data set with human dermis (exposed concentric ring) is on record as “thin deep blue-black ring”. For the same molecule, the “appearance of corneal surface after etching a thin ring with scalpel blade and restaining” value in the data set with cat cornea (dye applied again for 1 minute, washed with 0.1M phosphate buffer, pH 7.2) is given as “thin ring of deep blue-black color”. The “appearance of intact cornea surface after staining” value in the data set with cat cornea (dye in 0.2M disodium phosphate, pH 9.2, 1 minute, entire exposed cornea, not etched) was “faintly blue-black”. Moreover, the “appearance of scleral ring surrounding the eye where dye leaked” value in the data set with cat cornea (dye in 0.2M disodium phosphate, pH 9.2, sclera) was “deep blue-black”.

The values are drawn from patent US7015013B2, “Method for localized staining of an intact corneal tissue surface” (3D Vision Systems, LLC, priority 2003, dated 2006).
